From paper PMC12304000
No constants are given. Whether binding was seen depends on the method and setting. Binding seen in cells or lysates may run through a third protein. Some results given as binding are weak or reduced against the parent protein; the word gives no strength.

Sequences of proteins named here, by UniProt entry; tags and fusion partners are left off. Residues count along the entry.
UniProt Q05397: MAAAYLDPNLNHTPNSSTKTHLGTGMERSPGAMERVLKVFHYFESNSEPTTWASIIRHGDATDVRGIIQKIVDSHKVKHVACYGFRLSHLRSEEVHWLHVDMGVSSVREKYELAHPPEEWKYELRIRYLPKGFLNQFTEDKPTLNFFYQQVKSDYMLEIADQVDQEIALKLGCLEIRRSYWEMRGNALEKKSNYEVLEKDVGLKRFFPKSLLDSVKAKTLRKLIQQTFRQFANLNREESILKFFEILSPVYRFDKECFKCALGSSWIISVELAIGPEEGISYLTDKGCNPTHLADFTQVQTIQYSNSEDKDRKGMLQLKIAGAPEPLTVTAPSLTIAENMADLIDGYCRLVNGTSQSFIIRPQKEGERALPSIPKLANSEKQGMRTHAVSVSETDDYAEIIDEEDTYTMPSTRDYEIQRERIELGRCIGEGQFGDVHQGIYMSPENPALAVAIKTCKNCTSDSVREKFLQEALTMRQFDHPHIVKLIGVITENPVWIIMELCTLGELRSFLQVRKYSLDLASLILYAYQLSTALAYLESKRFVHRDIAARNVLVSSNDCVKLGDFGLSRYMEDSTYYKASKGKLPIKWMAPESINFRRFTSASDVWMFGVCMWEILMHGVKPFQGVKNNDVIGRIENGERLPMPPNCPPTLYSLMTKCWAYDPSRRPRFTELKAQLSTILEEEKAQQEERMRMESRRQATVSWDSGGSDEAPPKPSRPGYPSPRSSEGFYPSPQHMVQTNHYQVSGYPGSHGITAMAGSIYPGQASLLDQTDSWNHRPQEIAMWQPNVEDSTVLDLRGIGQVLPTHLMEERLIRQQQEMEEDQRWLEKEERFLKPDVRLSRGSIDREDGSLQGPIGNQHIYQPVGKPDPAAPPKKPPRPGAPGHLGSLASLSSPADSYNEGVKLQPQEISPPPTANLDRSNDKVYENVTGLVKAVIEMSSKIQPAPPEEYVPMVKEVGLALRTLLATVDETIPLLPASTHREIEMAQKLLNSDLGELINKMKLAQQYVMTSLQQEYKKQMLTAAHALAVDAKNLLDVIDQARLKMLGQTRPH
UniProt Q9NZQ7, residues 19-290: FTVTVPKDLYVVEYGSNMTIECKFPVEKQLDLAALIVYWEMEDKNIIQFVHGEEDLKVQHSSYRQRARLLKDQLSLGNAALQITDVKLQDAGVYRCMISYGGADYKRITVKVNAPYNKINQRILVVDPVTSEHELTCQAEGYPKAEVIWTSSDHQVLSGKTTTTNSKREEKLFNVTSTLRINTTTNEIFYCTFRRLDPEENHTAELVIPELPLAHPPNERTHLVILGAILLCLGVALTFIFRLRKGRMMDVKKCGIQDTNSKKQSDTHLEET
UniProt P05412: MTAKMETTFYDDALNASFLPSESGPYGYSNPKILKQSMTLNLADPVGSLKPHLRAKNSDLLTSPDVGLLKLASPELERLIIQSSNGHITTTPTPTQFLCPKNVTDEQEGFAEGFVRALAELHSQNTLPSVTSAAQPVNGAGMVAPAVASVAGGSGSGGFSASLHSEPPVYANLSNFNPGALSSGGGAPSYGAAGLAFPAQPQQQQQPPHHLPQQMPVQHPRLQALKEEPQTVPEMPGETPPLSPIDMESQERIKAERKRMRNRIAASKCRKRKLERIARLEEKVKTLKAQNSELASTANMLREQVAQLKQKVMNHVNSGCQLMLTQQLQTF

Molecular target: FAK (human (endogenous in CAFs)) (UniProt Q05397)
Assay: co-IP; lysates of CAFs (CD248-overexpressing); commercial kit (Absin, #abs9649); primary antibody 1 h, then antibody-conjugated beads overnight at 4°C; anti-FAK antibody, rabbit IgG as control, 2 µg per mg of total protein; detection by blot

| Substance | binding |
| --- | --- |
| PD-L1 (from UniProt Q9NZQ7 19-290) (ligand) | binds |
| c-Jun (from UniProt P05412 1-331) | binds |
